Data from PMC11910659.
Results are given in words; binding and its absence hold for the method and conditions named. Binding seen in cells or lysates may run through a third protein. Some binding calls cover weakened binding; strength is not graded here. Sequences can lack the tags named with a protein.

What was measured:
[1] = target: T1, truncated DRC4, amino acids 1-258 deleted (mouse) (UniProt Q60779); test: co-IP; HEK293T cells transfected with HA/FLAG plasmids, RIPA lysate, protein A/G magnetic beads with HA antibody overnight at 4 °C, five washes with RIPA
T1 sequence: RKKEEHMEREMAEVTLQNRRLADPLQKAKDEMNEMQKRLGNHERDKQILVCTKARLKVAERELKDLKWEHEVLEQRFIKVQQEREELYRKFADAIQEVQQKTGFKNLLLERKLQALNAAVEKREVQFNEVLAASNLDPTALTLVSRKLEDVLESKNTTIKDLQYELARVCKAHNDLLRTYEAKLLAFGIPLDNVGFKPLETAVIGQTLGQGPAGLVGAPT

[2] = target: T2, DRC4, full length, HA- or FLAG-tagged (pCAG) (mouse) (UniProt Q60779); test: as above
T2 sequence: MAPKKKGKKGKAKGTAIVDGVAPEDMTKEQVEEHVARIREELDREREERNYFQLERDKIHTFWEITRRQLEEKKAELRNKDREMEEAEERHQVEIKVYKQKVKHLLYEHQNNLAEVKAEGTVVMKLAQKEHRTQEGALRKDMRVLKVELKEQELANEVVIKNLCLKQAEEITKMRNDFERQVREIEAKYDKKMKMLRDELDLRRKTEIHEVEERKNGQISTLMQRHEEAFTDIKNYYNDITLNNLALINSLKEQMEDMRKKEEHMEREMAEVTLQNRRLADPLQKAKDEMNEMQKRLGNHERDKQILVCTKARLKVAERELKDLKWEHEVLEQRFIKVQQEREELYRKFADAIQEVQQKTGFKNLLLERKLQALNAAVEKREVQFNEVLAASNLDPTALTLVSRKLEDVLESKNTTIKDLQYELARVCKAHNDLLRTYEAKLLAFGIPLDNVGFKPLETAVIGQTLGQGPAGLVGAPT

- binding [1]: no binding
- binding [2]: binds
B1: AKAP3, HA- or FLAG-tagged (pCAG) (protein, UniProt O88987 1-864)
chain: MADRVDWLQSQSGVCKVGVYSPGDNQHQDWKMDTSTDPVRVLSWLRKDLEKSTAGFQDSRFKPGESSFVEEVAYPVDQRKGFCVDYYNTTNKGSPGRLHFEMSHKENPSQGLISHVGNGGSIDEVSFYANRLTNLVIAMARKEINEKIHGAENKCVHQSLYMGDEPTPHKSLSTVASELVNETVTACSKNISSDKAPGSGDRASGSSQAPGLRYTSTLKIKESTKEGKCPDDKPGTKKSFFYKEVFESRNAGDAKEGGRSLPGDQKLFRTSPDNRPDDFSNSISQGIMTYANSVVSDMMVSIMKTLKIQVKDTTIATILLKKVLMKHAKEVVSDLIDSFMKNLHGVTGSLMTDTDFVSAVKRSFFSHGSQKATDIMDAMLGKLYNVMFAKKFPENIRRARDKSESYSLISTKSRAGDPKLSNLNFAMKSESKLKENLFSTCKLEKEKTCAETLGEHIIKEGLHMWHKSQQKSPGLERAAKLGNAPQEVSFECPDPCEANPPHQPQPPENFANFMCDSDSWAKDLIVSALLLIQYHLAQGGKMDAQSFLEAAASTNFPTNKPPPPSPVVQDECKLKSPPHKICDQEQTEKKDLMSVIFNFIRNLLSETIFKSSRNCESNVHEQNTQEEEIHPCERPKTPCERPITPPAPKFCEDEEATGGALSGLTKMVANQLDNCMNGQMVEHLMDSVMKLCLIIAKSCDSPLSELGEEKCGDASRPNSAFPDNLYECLPVKGTGTAEALLQNAYLTIHNELRGLSGQPPEGCEIPKVIVSNHNLADTVQNKQLQAVLQWVAASELNVPILYFAGDDEGIQEKLLQLSATAVEKGRSVGEVLQSVLRYEKERQLDEAVGNVTRLQLLDWLMANL
